Assay results reported in the supplement of paper PMC12764529.
± gives the half width of the 95% confidence interval. The two proteases of the assay disagree for many of these sequences.

Assays:
[1] = folding stability dG unfold from trypsin proteolysis; higher = more stable
In short: (§1)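 Mini-proteins designed to be under 80 residues and free of cysteine were carried in a PA-tagged cDNA display construct and digested with trypsin and with chymotrypsin. Each protease was applied at 11 threefold-diluted concentrations, alongside a no-protease condition, before sequencing. K50 came from Bayesian fitting of the sequencing counts, and unfolding free energy was obtained by comparing it with a sequence-predicted unfolded-state K50 and a shared folded-state K50, for each protease separately or for both together. Designs were retained only if their AlphaFold2 dimer inter-PAE exceeded 15.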

[2] = folding stability dG unfold (combined trypsin and chymotrypsin); higher = more stable
In short: as §1

[3] = folding stability dG unfold from chymotrypsin proteolysis; higher = more stable
In short: as §1

Row | Sequence | folding stability dG unfold [1] | folding stability dG unfold [2] | folding stability dG unfold [3]
1 | SAGGSAGGSAAVVVPAPADTTVTLTLELEFEVPPDWTLPDGTRLKAGEKVRLTVTATFRVEGSAGGSAGGSA [r18_450_TrMRF] | 0.72 ± 0.05 kcal/mol | 2.96 ± 0.22 kcal/mol | 3.67 ± 0.093 kcal/mol
2 | SAGGSAGGSAGGKISENALPGQTVTWEWYIMIMTMKRNPNGEREMEMHWIPVEFTVKVPSAGGSAGGSAGGS [r10_1135_TrROS] | 2.09 ± 0.075 kcal/mol | 3.46 ± 0.3 kcal/mol | 4.12 ± 0.14 kcal/mol
3 | SAGGKEKKPIKIEITITKIEYDKENNVITLEYEIRIDGKLIKVKIRFFKDNPNKFVIESIEIFEEGKSAGGS [r16_89_TrROS_Hall] | 2.71 ± 0.12 kcal/mol | 4.53 ± 0.37 kcal/mol | 4.83 ± 0.25 kcal/mol
4 | SAGMININVTYRPNKNGQYWVTVKLSIMEPRPDPDGKQYMEMRQLEIEVPFKTPSDAPRAVKEIIKKISAGG [r19_218_TrROS] | 1.79 ± 0.22 kcal/mol | 3.59 ± 0.34 kcal/mol | 4.32 ± 0.24 kcal/mol
5 | SAGKVTGYEDGSVKIEATLKVGDKVYKVTATISPDGSVSVSVEPIEEIPPPPPVPIDSSKPGNKALAESSAG [r5_715_TrMRF] | 0.186 ± 0.073 kcal/mol | 2.48 ± 0.32 kcal/mol | 3 ± 0.072 kcal/mol
6 | SAGGSAGGSAGMTRTVTFTITDPNSSNTTTITVPTTSEQDVAAAKAALKAANPNVTITLTSAGGSAGGSAGG [r11_233_JUSTAS] | 0.3 ± 0.12 kcal/mol | 0.718 ± 0.076 kcal/mol | 0.954 ± 0.092 kcal/mol
7 | SAGGAEEARKAGRPVLLTVTVTAPGSGKVSTLPLLVPADRPVDVEALVAALFPADWAVTVSVSPVGGSAGGS [r8_127_JUSTAS] | 1.32 ± 0.028 kcal/mol | 1.27 ± 0.11 kcal/mol | 1.37 ± 0.051 kcal/mol
8 | SAMTIEIVVESKEEAEEAIRKLAEELGLEVEEIKVEVVEKKVTVTKKDGKKIEKKVLVVKVEIKLKPKESAG [r14_773_TrROS_Hall] | 0.34 ± 0.31 kcal/mol | 2.83 ± 0.5 kcal/mol | 3.81 ± 0.82 kcal/mol
9 | SAGGSKIPLDNIKVITIMYNPKEGMYWISIRFPNNGKEVVFPYEDAPKILEKFPEIKEIEVYPFPPSAGGSA [r2_159_TrROS] | 2.25 ± 0.11 kcal/mol | 2.59 ± 0.084 kcal/mol | 2.76 ± 0.036 kcal/mol
10 | SAGGSAGGSAGGKPPPKTLTVFILNEDGELTVFKVEEKDGKLKIEVEKMTLEELKKLKPSAGGSAGGSAGGS [r10_257_TrROS_Hall] | 1.36 ± 0.14 kcal/mol | 3.77 ± 0.29 kcal/mol | 4.31 ± 0.11 kcal/mol
11 | SAGGSAKKEKEIYIEIKVKVEKLKNGKLKYYSAEEIAELLKELGFEVEIVEIKETDDYIYIKIKVKSAGGSA [r15_225_TrROS_Hall] | 1.11 ± 0.1 kcal/mol | 3.33 ± 0.3 kcal/mol | 3.52 ± 0.19 kcal/mol
12 | SAGGSAGGSAGGEPIPTKTIEVDEATGTVTVTVTFPPPNETVTVTRPAPPDVSLEEVLASAGGSAGGSAGGS [r10_676_JUSTAS] | 1.07 ± 0.17 kcal/mol | 1.59 ± 0.15 kcal/mol | 1.58 ± 0.15 kcal/mol
13 | SMTLITLTDPVTNVPVEKVEVRKLEDGTYEATVTTKEPSKTTTKTYPLPPDEKITDVLKSLGLKEAEINLSA [r9_492_JUSTAS] | 0.255 ± 0.036 kcal/mol | 0.445 ± 0.17 kcal/mol | 0.538 ± 0.093 kcal/mol
14 | SAGGSAGGSAGGNWVTIWIPFKMTHYRPDPDGKMYPHKHEMPRPITIPPGQATEDALDKISAGGSAGGSAGG [r7_777_TrROS] | 0.165 ± 0.12 kcal/mol | 0.595 ± 0.11 kcal/mol | 0.762 ± 0.14 kcal/mol
15 | SAGGSAGGSAGGAPEKEVTVRVRITVFRDGKPVEEIELEPGQTLTFPPGARVVIEVELLPSAGGSAGGSAGG [r7_141_TrROS_Hall] | 3 ± 0.13 kcal/mol | 3.39 ± 0.17 kcal/mol | 3.51 ± 0.12 kcal/mol
16 | SAGEEVYLITVRIIDPETNEVKEITKLIKNKTEDEILEELRKLLEELGIELPEGAKVEITITKIKPPPESAG [r5_230_TrROS_Hall] | 3.53 ± 0.52 kcal/mol | 4.26 ± 0.82 kcal/mol | 4.07 ± 0.44 kcal/mol
17 | SAGGSAIEELAKKLPGAKVEVVEEKEGTVYLKVKLKDGSYLKISITYDKETKEKTIKIEKVPKEELSAGGSA [r15_547_TrROS_Hall] | 1.91 ± 0.069 kcal/mol | 4.01 ± 0.14 kcal/mol | 4.377 ± 0.032 kcal/mol
18 | SAGLPEIAEELGFEIASAELVEYDPETGKVTYRVVFRTEDNEYLVIDVDLSEPGKVEIRRFPPNVSLPSAGG [r19_72_TrMRF] | 1.4 ± 0.088 kcal/mol | 3.29 ± 0.12 kcal/mol | 3.82 ± 0.07 kcal/mol
19 | SWMKFTFMFMIRTPEQVINFAKWLAQPGLEIEVDVMPMPMKDPENGEPRPYYMVHIKIEIPIPPPSPGDKSA [r9_962_TrROS] | 3.25 ± 0.091 kcal/mol | 4.57 ± 0.12 kcal/mol | 5.29 ± 0.086 kcal/mol
20 | SAGGMLVTLALTNEDGTVHTLALYVDEDGNLTVTDSESYPATATFTDADGVPHTAPVTVTKEKVAPDSAGGS [r8_270_TrMRF] | -1.1 ± 0.41 kcal/mol | 0.764 ± 0.16 kcal/mol | 1.32 ± 0.036 kcal/mol
21 | SAGGMEPVSPEEAAEALRAELLAAHPDLEVEVTVTTTPLPTGALRVDVTFRFYAPPPPVGERRHVVEVPSAG [r5_696_JUSTAS] | -0.402 ± 0.07 kcal/mol | 1.77 ± 0.059 kcal/mol | 2.498 ± 0.023 kcal/mol

A second format for some results above:
Row,Sequence,folding stability dG unfold [1],folding stability dG unfold [2],folding stability dG unfold [3]
10,SAGGSAGGSAGGKPPPKTLTVFILNEDGELTVFKVEEKDGKLKIEVEKMTLEELKKLKPSAGGSAGGSAGGS [r10_257_TrROS_Hall],1.36 ± 0.14 kcal/mol,3.77 ± 0.29 kcal/mol,4.31 ± 0.11 kcal/mol
11,SAGGSAKKEKEIYIEIKVKVEKLKNGKLKYYSAEEIAELLKELGFEVEIVEIKETDDYIYIKIKVKSAGGSA [r15_225_TrROS_Hall],1.11 ± 0.1 kcal/mol,3.33 ± 0.3 kcal/mol,3.52 ± 0.19 kcal/mol
12,SAGGSAGGSAGGEPIPTKTIEVDEATGTVTVTVTFPPPNETVTVTRPAPPDVSLEEVLASAGGSAGGSAGGS [r10_676_JUSTAS],1.07 ± 0.17 kcal/mol,1.59 ± 0.15 kcal/mol,1.58 ± 0.15 kcal/mol
13,SMTLITLTDPVTNVPVEKVEVRKLEDGTYEATVTTKEPSKTTTKTYPLPPDEKITDVLKSLGLKEAEINLSA [r9_492_JUSTAS],0.255 ± 0.036 kcal/mol,0.445 ± 0.17 kcal/mol,0.538 ± 0.093 kcal/mol
14,SAGGSAGGSAGGNWVTIWIPFKMTHYRPDPDGKMYPHKHEMPRPITIPPGQATEDALDKISAGGSAGGSAGG [r7_777_TrROS],0.165 ± 0.12 kcal/mol,0.595 ± 0.11 kcal/mol,0.762 ± 0.14 kcal/mol
15,SAGGSAGGSAGGAPEKEVTVRVRITVFRDGKPVEEIELEPGQTLTFPPGARVVIEVELLPSAGGSAGGSAGG [r7_141_TrROS_Hall],3 ± 0.13 kcal/mol,3.39 ± 0.17 kcal/mol,3.51 ± 0.12 kcal/mol
16,SAGEEVYLITVRIIDPETNEVKEITKLIKNKTEDEILEELRKLLEELGIELPEGAKVEITITKIKPPPESAG [r5_230_TrROS_Hall],3.53 ± 0.52 kcal/mol,4.26 ± 0.82 kcal/mol,4.07 ± 0.44 kcal/mol

Continued:

Row | Sequence | folding stability dG unfold [1] | folding stability dG unfold [2] | folding stability dG unfold [3]
22 | SAGGKPKKTILIPLIVPPGKPESAIKALAEFLEAKGYELERIEPVPVGDRLRLVAIFRKPDGTEIKVGSAGG [r13_421_TrMRF] | 1.66 ± 0.037 kcal/mol | 1.78 ± 0.069 kcal/mol | 1.9 ± 0.11 kcal/mol
23 | SAGKSIKIPYIIRFPSPNGEPHLMRIKEVTINPKPGMVKIKFQMPGKKQTHTVPPNNIEILPDPEEILKSAG [r5_15_TrROS] | 0.116 ± 0.22 kcal/mol | -0.0216 ± 0.29 kcal/mol | -0.0282 ± 0.33 kcal/mol
24 | DRIEIDVEMYDGYFYKIEIRWPGNGEPRELMFPGSLSEAKDFAEDLIQEQHPGAPVDEIDVEPVPMPPGDFS [r1_80_TrROS] | 0.683 ± 0.2 kcal/mol | 1.69 ± 0.19 kcal/mol | 2.01 ± 0.05 kcal/mol
25 | SAGGELVIKNPKTNKYFKVKPIEEITIKEYKFDKNGKLVEEKEIKISIFEIENEDGSKYTIKSIEIKSAGGS [r8_214_TrROS_Hall] | 1.49 ± 0.11 kcal/mol | 3.51 ± 0.4 kcal/mol | 3.75 ± 0.086 kcal/mol
26 | SAGFEIKEVERTPNGMLKLTYELPGLRVKITWSPNRIESIAIEPLPPVPPPPKVPMERDPEDGNWKWKSAGG [r19_254_TrROS] | 0.455 ± 0.17 kcal/mol | 2.26 ± 0.51 kcal/mol | 3.17 ± 0.062 kcal/mol
27 | SAGGSMKIELFEDGYLRIVFPADKPELVEEIKKLAEELGLEYELFYDPEKPYVVALFKVPKELLEKSAGGSA [r2_224_TrMRF] | 1.13 ± 0.032 kcal/mol | 2.82 ± 0.12 kcal/mol | 3.28 ± 0.022 kcal/mol
28 | SAGPSVTITLTLPDGVTVTLTVNEDGTVTLTVTATVKTTTYTVKDGKLTEKTETTETVTLTATFKLPDSAGG [r19_257_TrROS_Hall] | 2.95 ± 0.16 kcal/mol | 5.11 ± 0.22 kcal/mol | 5.21 ± 0.16 kcal/mol
29 | SAMVLKVEEEPFPPNAKREVKEIRKDPNSDNLFKVKIELEKSPDPSVTSAKVITIPPDGSKKVEEKVLESAG [r14_10_JUSTAS] | 0.514 ± 0.27 kcal/mol | 0.508 ± 0.59 kcal/mol | 0.47 ± 0.19 kcal/mol
30 | SAGGKKIKVEVKIEIKIEKNPDGSYTIRIKITVKVTNENGEKFEVKVELEITLSEEELEKLKKLLEELSAGG [r13_412_TrROS_Hall] | 3.07 ± 0.24 kcal/mol | 3.5 ± 0.39 kcal/mol | 3.75 ± 0.46 kcal/mol
31 | SMGPDEPKLLGEIEIPFPNGKLRVKVYKTEGDKYLIVVETEDSVIPHYVEVKSPEEAEKYAEELIKKLGKSA [r9_758_TrMRF] | 2.05 ± 0.13 kcal/mol | 3.82 ± 0.097 kcal/mol | 4.29 ± 0.12 kcal/mol
32 | SAGGSAGGSAGMTVTTITKTYPFDPNKSLSFTVPPGATITDKKTDADIAKGTVTVTVTVASAGGSAGGSAGG [r11_701_JUSTAS] | 0.345 ± 0.053 kcal/mol | 0.436 ± 0.13 kcal/mol | 0.355 ± 0.13 kcal/mol
33 | DDWVTLPVEIWIPVRNPDGKPLTPEQVKETANSIRNELARNHGIDVEVDVKVEPVGPNGYYRINATVTIRPS [r1_231_TrROS] | 2.23 ± 0.1 kcal/mol | 2.72 ± 0.14 kcal/mol | 2.98 ± 0.055 kcal/mol
34 | SDKVEIWIPIPDGFWVRIKYDKPGKREITIWMPEDNPEFRKHGSMDQFIKHLARKLGLDPDKVKVDMYPMSA [r9_401_TrROS] | 3.13 ± 0.1 kcal/mol | 3.69 ± 0.14 kcal/mol | 4.11 ± 0.098 kcal/mol
35 | SAGMKIEIEKVEKDENGKYRFKAKVTVFDEKTGEKKEITIEITLPKEELKDEEILKEAVKKAVEELEKKSAG [r5_964_TrROS_Hall] | 2.81 ± 0.25 kcal/mol | 4.63 ± 0.56 kcal/mol | 4.99 ± 0.27 kcal/mol
36 | SAGGSAGGSAGGVDPGSDGGVTVDKGDGDLVTLTTTDPNNPGAPVTVTTVPVSAVSPELLSAGGSAGGSAGG [r7_761_JUSTAS] | 1.41 ± 0.049 kcal/mol | 0.63 ± 0.053 kcal/mol | -1.5 ± 0.24 kcal/mol
37 | SAMKIEYDSKTGTLTIKITIPIIKKLNPEEKKKLAEEIKNFIKKKFPNAKIEVHILPVESPEEAKKILKSAG [r14_406_TrMRF] | 1 ± 0.1 kcal/mol | 2.71 ± 0.36 kcal/mol | 3.46 ± 0.089 kcal/mol
38 | SAGGSAGGSAGGMVELVSIEQDPKGTVTATFRLPNGELRTFVFSSSDPAAIEAAAAALASAGGSAGGSAGGS [r10_472_JUSTAS] | 2.16 ± 0.041 kcal/mol | 4.03 ± 0.15 kcal/mol | 4.298 ± 0.039 kcal/mol
39 | SAGGSAGGSAGGTIWIPIDTPDEIKELAENFGFKVEMEKRDDGWVWVKIEIVPPEENKRSAGGSAGGSAGGS [r10_218_TrROS] | 0.0436 ± 0.12 kcal/mol | 2.11 ± 0.5 kcal/mol | 3.54 ± 0.25 kcal/mol
40 | SKTITLKPGQTLTITLTLTFPKDVKKVTLKVEITYNGKKYTETKTFTTKDGKTVTITLTIKLPPGAEIKISA [r9_973_TrROS_Hall] | 2.84 ± 0.2 kcal/mol | 5.09 ± 0.48 kcal/mol | 5.34 ± 0.17 kcal/mol
41 | SAGGSAGGSKKYKIVSIEYDEETDEITIKIYNSNGELVEEFKFKKGEEIVITLEDGSKIVIKDSAGGSAGGS [r12_441_TrROS_Hall] | 2.62 ± 0.087 kcal/mol | 4.88 ± 0.12 kcal/mol | 5.05 ± 0.057 kcal/mol
42 | SAGGSAGGSMKTYTLPNGLRVQLVRVDKKTKTITLKVFDKNGELVEEIEIKVDEPVELLVVYPSAGGSAGGS [r12_960_TrROS_Hall] | 2.09 ± 0.061 kcal/mol | 2.45 ± 0.15 kcal/mol | 2.69 ± 0.05 kcal/mol
